Source: PMC5431371, “Crystal structure-based discovery of a novel synthesized PARP1 inhibitor (OL-1) with apoptosis-inducing mechanisms in triple-negative breast cancer” (Scientific Reports, 2016)

System: MDA-MB-436 cells
Experiment: Cell viability assay (MTT)
Type: cell-based
Settings: Homo sapiens; MDA-MB-436 cells (BRAC1 mutant breast cancer); mean ± SD, at least three independent experiments; read-out: Anti-cell viability (IC50, μM) MDA-MB-436
Procedure: Breast cancer cells including MCF-7, MDA-MB-231, MDA-MB-436 and MDA-MB-468 cells were obtained from American Type Culture Collection (ATCC, Manassas, VA, USA). […] MDA-MB-231, MDA-MB-436 and MDA-MB-468 cells were cultured in humidified cell incubator with atmosphere at 37 °C while MCF-7 cells was cultured with 5% CO2 at 37 °C. 5 × 10^3 cells were seeded into each well in 96-well microplates and cultured for 24 h. Then the cells were exposed to different concentrations of OL-1 for 24 h. After drug treatment, the cell viabilities were detected by MTT assay.

CN(C)CCC=C1c2ccccc2COc2ccccc21 [Compound 19b]
IC50: 4.14 ± 1.17 µM
